These results are taken from PubChem BioAssay AID694 (Emory University Molecular Libraries Screening Center, 2007).

Amino acid sequences for entries named in this document (tags omitted).
UniProt P03372, whole entry, looked up: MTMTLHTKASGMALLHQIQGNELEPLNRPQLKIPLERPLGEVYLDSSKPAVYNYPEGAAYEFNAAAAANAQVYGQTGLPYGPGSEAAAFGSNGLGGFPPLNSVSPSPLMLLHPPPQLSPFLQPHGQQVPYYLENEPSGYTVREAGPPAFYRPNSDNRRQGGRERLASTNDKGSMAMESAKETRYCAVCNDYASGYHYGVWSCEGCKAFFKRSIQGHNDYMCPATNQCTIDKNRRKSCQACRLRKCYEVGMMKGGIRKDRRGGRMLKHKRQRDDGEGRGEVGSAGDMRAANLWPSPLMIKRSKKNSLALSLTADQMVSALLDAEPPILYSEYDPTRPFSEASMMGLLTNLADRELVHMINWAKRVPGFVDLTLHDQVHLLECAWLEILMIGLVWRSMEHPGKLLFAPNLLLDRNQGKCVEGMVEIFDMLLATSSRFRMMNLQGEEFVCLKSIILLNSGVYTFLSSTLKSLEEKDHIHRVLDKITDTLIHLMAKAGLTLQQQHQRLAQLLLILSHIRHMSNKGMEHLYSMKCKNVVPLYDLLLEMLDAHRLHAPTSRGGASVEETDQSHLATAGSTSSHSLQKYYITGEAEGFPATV

In this assay the target is Estrogen receptor (Homo sapiens) (UniProt P03372). The assay is described as follows: blockers of coactivator recruitment to ERα – biochemical, LOPAC library, TR-FRET, primary screen (AID 694).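 Also: receptor was agonist-bound with estradiol present during the assay.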 As to conditions: TR-FRET ERalpha-coactivator peptide binding, stronger effect = higher value.

Most of the hits are listed elsewhere, so they are rarer here than in the full data. Active and inactive are the calls of the source. No rule for the calls is given here.

Turning to `CN1C2CCC1CC(OC(=O)C(O)c1ccccc1)C2` (configuration not stated), the inhibition runs as follows: (at 45 µM) inactive: 0.24%; (inhibition, at 15 µM) -1.43%.

What is called inhibition is the drop in the measured response relative to a control, in per cent.
